For orientation: AC50 means the concentration at which the activity in the assay is half-maximal.

Molecules are shown by their SMILES. The list shows a part of the results. Shown are side measurements of this screen, not its main read-out; they come without a call. Compounds called inactive in the main read-out are mostly missing here. The note in brackets gives the kind of curve behind each potency; many fits are weak.

In PubChem BioAssay AID2685 (National Center for Advancing Translational Sciences (NCATS), 2010) one finds cell number change and AC50 data, which are given here for 36 molecules.

This experiment is described as follows: qHTS Assay for Lipid Storage Modulators in Drosophila S3 Cells.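 For cell number change: cells counted by Cell Tracker Red CMTPX staining in the red channel.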 The conditions noted are these: BODIPY lipid droplet fluorescence, 18-24 h; for cell number change: measured here: cell count max response, cells fed with added oleic acid. A digest of the protocol:
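Drosophila S3 cells got compounds at several concentrations plus oleic acid (400 uM solution). Laser-scanning cytometry with 488 nm excitation read lipid droplets at 500-530 nm and cells at 575-640 nm. Percent activity was relative to 20 uM Triacsin C.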

The mark [1] stands for this setting: measured here: cell number channel AC50, cells fed with added oleic acid.
Setting [2] is: measured here: lipid fluorescence (Fed channel) AC50, cells fed with added oleic acid.

With `Cc1ccc2nc3c(c(C(=O)O)c2c1)CCC3`, the cell number change came out at 1.52%.

Consider `CCOc1ccc(-n2cc(C(=O)Nc3cccc(OC)c3)c3cc(OC)c(OC)cc3c2=O)cc1`, for which the cell number change was 38.6%. Further, under setting [1], the AC50 is 0.517 µM [rising, full curve]. Besides, the half-maximal activity concentration (AC50) under setting [2] was 6.51 µM [rising, single point].

On to `O=C1c2ccccc2C(=O)N1CN(C(=O)c1ccccc1[N+](=O)[O-])c1ccc(F)cc1`, for which the cell number change is 0.481%. Moreover, the concentration at half-maximal activity (AC50) under setting [1] was 6.51 µM [rising, single point]. Also, under setting [2], the half-maximal activity concentration (AC50) was 0.0103 µM [falling, full curve, poor fit].

Consider `COc1cc(C2C(C(=O)c3cc4ccccc4o3)=C(O)C(=O)N2CCN2CCOCC2)ccc1OCCC(C)C` (stereo unspecified), for which the cell number change is 2.21%. For the same molecule, the AC50 under setting [2] was 6.51 µM [falling, single point].

With `C=CCc1cccc2cc(C(=O)N3CCN(C(=O)c4ccccc4)CC3)c(=O)oc12`, the cell number change was -23.1%.

For the molecule `Nc1nc(-c2ccccc2)cc(-c2ccccc2O)n1`, the cell number change came to 37.3%. Besides, under setting [1], the concentration at half-maximal activity (AC50) is 29.1 µM [rising, single point].

For `CC1=CC(C)(C)Nc2ccc(OC(=O)CN3C(=O)c4cccc5cccc(c45)C3=O)cc21`, the cell number change is -3.55%. Further, the AC50 under setting [2] is 1.64 µM [falling, partial curve].

Consider `COc1ccc(Oc2coc3cc(OCC(=O)N4CCCCC4)ccc3c2=O)cc1`, for which the cell number change was -47.2%. For the same molecule, the AC50 under setting [1] is 0.82 µM [falling, full curve, poor fit]. In addition, the AC50 under setting [2] was 32.6 µM [rising, partial curve, poor fit].

In the case of `CC1CCN(C(=O)Cn2c(SCC(=O)Nc3nccs3)nc3ccccc32)CC1`, the cell number change came out at 24.9%. Under setting [2], the AC50 is 0.58 µM [rising, full curve].

As for `N#Cc1ccc(CN2CCN(C(=O)CCNS(=O)(=O)c3ccc(F)c(F)c3)CC2)cc1`, the cell number change is 7.09%. The AC50 under setting [2] is 32.6 µM [falling, single point].

Consider `COC(=O)c1ccccc1S(=O)(=O)N1CCC(C(=O)N2CCC2)CC1`, for which the cell number change is 11.4%. In addition, under setting [2], the AC50 was 6.51 µM [falling, partial curve, poor fit].

Turning to `COc1ccc(CNC(=O)CSc2nc3ccc(OC)cc3[nH]2)cc1`, the cell number change was -8.42%. Further, the concentration at half-maximal activity (AC50) under setting [2] is 29.1 µM [falling, single point].

For the molecule `Cc1cc(O)c(NC(=S)NC(=O)c2ccc(-c3ccc(Cl)cc3)o2)cc1C`, the cell number change was -87.5%. The AC50 under setting [1] is 16.4 µM [falling, partial curve]. Further, the AC50 under setting [2] is 14.6 µM [falling, partial curve].

With `O=C(NCCCn1ccnc1)c1ccc(Cl)cc1`, the cell number change was determined as 20.3%. Moreover, the AC50 under setting [2] was 2.91 µM [rising, partial curve, poor fit].

For the molecule `Cc1ccc(Nc2cc(=O)n(C3CCCCC3)c(=O)[nH]2)cc1C`, under setting [2], the AC50 was 20.6 µM [falling, partial curve, poor fit].

As to `CC1(NC(=O)Cc2ccc(S(=O)(=O)N3CCOCC3)s2)CCS(=O)(=O)C1` (stereo unspecified), the cell number change is -19.3%.

Take `Cc1noc(C)c1CSc1ccccc1C(=O)O`: the cell number change is -12.7%. The half-maximal activity concentration (AC50) under setting [2] is 29.1 µM [falling, single point].

On to `COc1cccc(-c2nc3n(n2)C(c2ccc4c(c2)OCO4)C(C(N)=O)=C(C)N3)c1` (stereo unspecified), for which the AC50 under setting [2] is 16.4 µM [rising, single point].

For the molecule `O=C(/C=C/c1ccccc1)NC(=S)Nc1ccccc1O`, the cell number change was determined as 2.95%.

For `CCN1C(=O)[C@@H]2[C@@H](c3ccc(-c4ccc(OC)cc4)cc3)N3CCCC[C@@]3(C(=O)OC)[C@@H]2C1=O`, the cell number change was -23.7%. Under setting [2], the AC50 is 0.326 µM [rising, partial curve, poor fit].

Turning to `COc1ccc(C2=NN(CN3C(=O)C(=O)c4ccccc43)C(c3ccc(Br)cc3)C2)cc1` (stereo unspecified), the cell number change came to 80%. The AC50 under setting [1] was 2.59 µM [rising, partial curve]. The AC50 under setting [2] was 9.2 µM [rising, partial curve].

With `CSc1cccc(-n2cc(-c3ccc4c(c3)OCO4)[nH]c2=O)c1`, the cell number change was -1.16%. Further, the concentration at half-maximal activity (AC50) under setting [2] is 2.31 µM [falling, partial curve].

For the molecule `Cc1c(-c2ccccc2)n[nH]c1C(=O)N=Nc1c(O)[nH]c2ccccc12`, the cell number change is -27.4%. Further, the concentration at half-maximal activity (AC50) under setting [1] is 0.0259 µM [rising, partial curve].

`Cc1noc(C)c1COc1ccc(C(=O)N2CCN(S(=O)(=O)c3ccc(Cl)cc3)CC2)cc1`: the cell number change is -77.5%. Moreover, the AC50 under setting [1] is 11.6 µM [falling, partial curve, poor fit]. The half-maximal activity concentration (AC50) under setting [2] is 0.731 µM [falling, partial curve, poor fit].

As for `O=c1cc(Cl)c(-c2ccccc2)n[nH]1`, the cell number change was -65.7%. Besides, the concentration at half-maximal activity (AC50) under setting [1] was 25.9 µM [falling, partial curve, poor fit]. In addition, the AC50 under setting [2] is 23.1 µM [falling, partial curve].

Take `COc1ccc(NC(=O)C2C3C=CC4(O3)C2C(=O)N(CCN2CCCCC2)C4C(=O)NC2CCCC(C)C2C)cc1` (stereo unspecified): the AC50 under setting [2] is 0.58 µM [falling, single point].

Turning to `COc1ccc(C)cc1S(=O)(=O)NC1CCCCC1`, the cell number change is -2.96%. For the same molecule, the AC50 under setting [2] was 0.092 µM [falling, full curve, poor fit].

As to `Cc1ccc(C)c(S(=O)(=O)N2C(=S)NC(=O)C2CC(C)C)c1` (stereo unspecified), the cell number change was 3.02%. In addition, the concentration at half-maximal activity (AC50) under setting [2] was 23.1 µM [rising, partial curve, poor fit].

As to `COc1ccccc1NC(=O)c1ccc2c(c1)CCN2S(C)(=O)=O`, the cell number change is 10.3%. The concentration at half-maximal activity (AC50) under setting [2] was 0.116 µM [rising, full curve, poor fit].

As for `O=C(Cc1cccc2ccccc12)NN1C(=O)C2C(C1=O)C1C=CC2C12CC2` (stereo unspecified), the cell number change was -17.9%. The AC50 under setting [2] was 16.4 µM [falling, single point].

Take `Cc1nc(-c2ccncc2)nc(NCCNc2ncccc2C(F)(F)F)c1Cl`: the cell number change is -9.55%. Besides, under setting [1], the half-maximal activity concentration (AC50) is 0.13 µM [rising, partial curve, poor fit].

With `COc1ccc(-c2nn(-c3ccccc3)cc2C(=O)NCC(c2cccs2)N2CCOCC2)cc1` (stereo unspecified), the cell number change was found to be 34.8%. Further, the AC50 under setting [1] was 1.84 µM [rising, full curve]. Moreover, the AC50 under setting [2] was 2.06 µM [rising, partial curve].

As for `O=C(O)c1cccc(-c2ccc(/C=c3/sc4nc5ccccc5n4c3=O)o2)c1`, the cell number change was -1.44%. Moreover, under setting [2], the AC50 is 32.6 µM [falling, single point].

As for `C/C(=N\NC(=O)c1ccc(F)cc1)c1ccccn1`, the cell number change was 1.42%. Besides, under setting [2], the half-maximal activity concentration (AC50) was 5.8 µM [falling, full curve].

In the case of `O=C1SC(SCc2ccccc2)=N/C1=C\c1ccco1`, the cell number change was 0.128%.

For the molecule `O=C(CCSc1ccc(Br)cc1)Nc1cccnc1`, under setting [1], the concentration at half-maximal activity (AC50) is 6.51 µM [rising, single point].
